US10278958B2, “IPA as a protective agent” (IXCELA, INC., priority 2012, dated 2019)

Test: Depression study of Sertraline: plasma IPA
Type: in vivo, human
Details: Study 15, 4 weeks, n=57

In the case of `CN[C@H]1CC[C@@H](c2ccc(Cl)c(Cl)c2)c2ccccc21` [Sertraline], the “mean plasma IPA on treatment” value is reported as 186.3 ng/mL.
